Numbering of substitutions follows the chain as printed. Names and notes keep the numbering of the source. Results are given in words; binding and its absence hold for the method and conditions named. For some of these results: In cells and extracts the contact can be indirect. Some entries that bind do so weakly or less than the wild type. Where a sequence is shown, tags or fusion partners need not be part of it. One block for each binder: values may come before it.
Tests used:
[1] = target: human aryl hydrocarbon receptor, residues 1-437 (human) (UniProt P35869); test: co-purification; four proteins co-expressed in Sf9; HisTrap (His6-Hsp90), then Strep-Tactin (Twin Strep-MBP-AHR), TEV, anion exchange that separates complexes with and without p23, SEC; 20 mM Na2MoO4 in the buffers
[2] = target: heat shock protein HSP 90-beta, full length, His6-tagged (human) (UniProt P08238); test: cryo-EM structure; ternary Hsp90-XAP2-AHR complex, co-expressed in Sf9 and co-purified, with indirubin at 5x molar excess; 20 mM Bis-Tris-HCl pH 7.0, 50 mM NaCl, 10 mM KCl, 10 mM MgCl2, 20 mM Na2MoO4, 2 mM BME; global map 2.85 Å, focused map 4.07 Å; both purified
[3] = target: human aryl hydrocarbon receptor, residues 1-437 (human) (UniProt P35869); test: as above
[4] = target: His10-tag-FLAG-tag-TEV site-Hsp90_(1-724) (human) (UniProt P08238); test: co-IP; HEK293F co-transfected with Twin Strep-MBP-AHR(1-437), His10-FLAG-Hsp90 and Myc-XAP2; cleared lysate on anti-MBP magnetic beads, 1 h on ice; 20 mM Bis-Tris-HCl pH 7.0, 10 mM KCl, 10 mM MgCl2, 20 mM Na2MoO4, 2 mM BME; Western blot with anti-tag antibodies
[5] = target: Twin Strep-tag-MBP-TEV site-AHR_(1-437) (human) (UniProt P35869); test: as above

Sequences of proteins named here, by UniProt entry; tags and fusion partners are left off. Residues count along the entry.
UniProt P35869, residues 1-437: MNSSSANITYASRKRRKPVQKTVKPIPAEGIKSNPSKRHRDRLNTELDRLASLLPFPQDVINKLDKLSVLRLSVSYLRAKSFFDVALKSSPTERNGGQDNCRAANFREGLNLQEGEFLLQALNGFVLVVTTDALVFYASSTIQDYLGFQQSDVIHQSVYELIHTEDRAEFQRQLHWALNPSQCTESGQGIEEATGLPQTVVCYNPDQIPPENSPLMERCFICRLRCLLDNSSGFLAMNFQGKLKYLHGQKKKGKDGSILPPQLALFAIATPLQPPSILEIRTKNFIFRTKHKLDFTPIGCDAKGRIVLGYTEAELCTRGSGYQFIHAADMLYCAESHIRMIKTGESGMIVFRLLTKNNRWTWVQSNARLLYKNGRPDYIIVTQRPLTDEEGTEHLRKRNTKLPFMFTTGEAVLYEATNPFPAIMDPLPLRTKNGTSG
UniProt P08238: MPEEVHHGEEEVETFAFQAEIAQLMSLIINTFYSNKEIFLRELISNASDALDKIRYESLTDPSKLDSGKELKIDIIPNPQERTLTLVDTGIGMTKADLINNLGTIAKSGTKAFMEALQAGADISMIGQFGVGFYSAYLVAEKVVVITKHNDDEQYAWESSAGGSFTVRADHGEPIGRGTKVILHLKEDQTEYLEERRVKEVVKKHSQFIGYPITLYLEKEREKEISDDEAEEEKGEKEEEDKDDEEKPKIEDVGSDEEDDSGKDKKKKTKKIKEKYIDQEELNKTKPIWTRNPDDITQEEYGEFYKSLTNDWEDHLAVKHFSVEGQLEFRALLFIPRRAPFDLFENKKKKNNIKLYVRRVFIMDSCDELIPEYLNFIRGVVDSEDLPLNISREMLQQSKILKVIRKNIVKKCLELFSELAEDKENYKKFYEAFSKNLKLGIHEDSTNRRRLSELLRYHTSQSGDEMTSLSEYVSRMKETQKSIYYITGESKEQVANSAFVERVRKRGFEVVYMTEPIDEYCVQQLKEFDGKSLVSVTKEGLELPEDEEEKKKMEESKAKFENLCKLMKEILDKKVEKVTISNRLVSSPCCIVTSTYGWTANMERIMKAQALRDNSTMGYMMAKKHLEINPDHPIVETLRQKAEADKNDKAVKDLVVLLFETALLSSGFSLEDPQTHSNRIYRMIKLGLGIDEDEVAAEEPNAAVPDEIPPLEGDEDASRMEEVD

binding [4]: binds
B4: Myc-tag-XAP2_(1-330) W279A (protein, UniProt O00170 1-330)
chain: MADIIARLREDGIQKRVIQEGRGELPDFQDGTKATFHYRTLHSDDEGTVLDDSRARGKPMELIIGKKFKLPVWETIVCTMREGEIAQFLCDIKHVVLYPLVAKSLRNIAVGKDPLEGQRHCCGVAQMREHSSLGHADLDALQQNPQPLIFHMEMLKVESPGTYQQDPWAMTDEEKAKAVPLIHQEGNRLYREGHVKEAAAKYYDAIACLKNLQMKEQPGSPEWIQLDQQITPLLLNYCQCKLVVEEYYEVLDHCSSILNKYDDNVKAYFKRGKAHAAVANAQEAQADFAKVLELDPALAPVVSRELRALEARIRQKDEEDKARFRGIFSH

binding [4]: binds
B5: Myc-tag-XAP2_(1-330) F328A (protein, UniProt O00170 1-330)
chain: B4 chain with A279W, F328A

binding [4]: binds
B7: Myc-tag-XAP2_(1-330) S329A (protein, UniProt O00170 1-330)
chain: B4 chain with A279W, S329A

binding [4]: binds
B9: Myc-tag-XAP2_(1-330) Y248A (protein, UniProt O00170 1-330)
chain: B4 chain with Y248A, A279W

binding [4]: binds
B10: Myc-tag-XAP2_(1-330) F324A (protein, UniProt O00170 1-330)
chain: B4 chain with A279W, F324A

Continued, binder first:

B1: prostaglandin E synthase 3, full length, untagged (protein, UniProt Q15185 1-160)
chain: MQPASAKWYDRRDYVFIEFCVEDSKDVNVNFEKSKLTFSCLGGSDNFKHLNEIDLFHCIDPNDSKHKRTDRSILCCLRKGESGQSWPRLTKERAKLNWLSVDFNNWKDWEDDSDEDMSNFDRFSEMMNNMGGDEDVDLPEVDGADDDSQDSDDEKMPDLE
binding [1]: binds

B2: HBV X-associated protein 2 / aryl-hydrocarbon receptor-interacting protein, full length, untagged (protein, UniProt O00170 1-330)
chain: B4 chain with A279W
binding [2]: binds
binding [3]: binds

B3: Myc-tag-XAP2_(1-330) D317A (protein, UniProt O00170 1-330)
chain: B4 chain with A279W, D317A
binding [4]: binds

B6: Myc-tag-XAP2_(1-330) (protein, UniProt O00170 1-330)
chain: B4 chain with A279W
binding [4]: binds
binding [5]: binds

B8: Myc-tag-XAP2_(1-330) D320A (protein, UniProt O00170 1-330)
chain: B4 chain with A279W, D320A
binding [4]: binds

B11: Myc-tag-XAP2_(1-330) I327A (protein, UniProt O00170 1-330)
chain: B4 chain with A279W, I327A
binding [4]: binds

— paper PMC9668932
